{"sequences": {"note": "Protein sequences, listed by entry. Tags and fused reporters are not part of them. Residues count along the entry.", "UniProt O60674, 828-1132": "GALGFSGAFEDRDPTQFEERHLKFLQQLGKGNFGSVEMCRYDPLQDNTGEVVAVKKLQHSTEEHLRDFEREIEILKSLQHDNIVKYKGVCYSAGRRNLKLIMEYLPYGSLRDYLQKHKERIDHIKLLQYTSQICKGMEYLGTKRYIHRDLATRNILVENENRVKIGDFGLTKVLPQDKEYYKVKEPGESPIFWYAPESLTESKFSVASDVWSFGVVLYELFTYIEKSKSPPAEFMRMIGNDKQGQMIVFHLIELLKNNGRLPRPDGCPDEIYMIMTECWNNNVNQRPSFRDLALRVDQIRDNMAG"}, "source": "patent US9718834B2", "about": "“Processes and intermediates for making a JAK inhibitor” (Incyte Corporation, priority 2011, dated 2017)", "molecular_target": "T1, human JAK2 (a.a. 828-1132) (Homo sapiens, UniProt O60674)", "T1 construct": "JAK2 (a.a. 828-1132); His tag (N); made in house; host or cells: insect cells (baculovirus)", "experiment": "In vitro JAK kinase assay (HTRF, phosphorylation of biotinylated peptide), JAK2", "type": "biochemical", "details": "ratio of IC50s, measured at 1 mM ATP", "note": "Counter-ions that a name gives are not always drawn. Some results were stated once for a whole list of compounds, not compound by compound."}
{"smiles": "N#CCC1(n2cc(-c3ncnc4[nH]ccc34)cn2)CN(C2CCN(C(=O)c3ccnc(C(F)(F)F)c3F)CC2)C1", "note": "[adipic acid salt, 2-(3-(4-(7H-Pyrrolo[2,3-d]pyrimidin-4-yl)-1H-pyrazol-1-yl)-1-(1-(3-fluoro-2-(trifluoromethyl)isonicotinoyl)piperidin-4-yl)azetidin-3-yl)acetonitrile adipate]", "values": [{"measurement": "JAK2/JAK1 ratio", "value": "> 10"}]}
